Measured values reported in patent US9725402B2, “Nitroso compounds as nitroxyl donors and methods of use thereof” (priority 2008, dated 2017).

Assay: HNO production via N2O quantification (GC headspace), with and without Pig Liver Esterase
Assay type: physicochemical
Conditions: with and also without Pig Liver Esterase (PLE), 37° C., 90 minutes, PBS buffer pH 7.4

| SMILES | HNO production (N2O quantification) |
| --- | --- |
| CC(=O)OC1(N=O)CCN(C)CC1 [Compound 1, 1-Methyl-4-nitrosopiperidin-4-yl acetate] | detectable levels of HNO |
| COC(=O)[C@H](CC(=O)OC1(N=O)CCOCC1)NC(=O)OCc1ccccc1 [Compound 37, 1-Methyl 4-(4-nitrosotetrahydro-2H-pyran-4-yl) N-[(benzyloxy)carbonyl]aspartate] | detectable levels of HNO |
| CC(C)(C)OC(=O)N[C@@H](CC(=O)OC1(N=O)CCOCC1)C(=O)OC(C)(C)C [Compound 38, 1-tert-Butyl 4-(4-nitrosotetrahydro-2H-pyran-4-yl) N-(tert-butoxycarbonyl)aspartate] | detectable levels of HNO |
| O=NC1(OC(=O)C(F)(F)C(F)(F)F)CCCCC1 [Compound 18, 1-Nitrosocyclohexyl 2,2,3,3,3-pentafluoropropanoate] | detectable levels of HNO |
| O=NC1(OC(=O)C(F)(F)C(F)(F)F)CCOCC1 [Compound 21, 4-Nitrosotetrahydro-2H-pyran-4-yl 2,2,3,3,3-pentafluoropropanoate] | detectable levels of HNO |
| CC(=O)OCC(C)(COC(C)=O)C(=O)OC1(N=O)CCOCC1 [Compound 35, 2-Methyl-2-((4-nitrosotetrahydro-2H-pyran-4-yloxy)carbonyl)propane-1,3-diyl diacetate] | detectable levels of HNO |
| CC(=O)OC[C@H](OC(C)=O)[C@H](OC(C)=O)C(=O)OC1(N=O)CCOCC1 [Compound 50, 4-Nitrosotetrahydro-2H-pyran-4-yl (2S,3S)-2,3,4-tris(acetyloxy)butanoate] | detectable levels of HNO |
| CCCCOP(=O)(OCCCC)OC1(N=O)CCCCC1 [Compound 26, Dibutyl 1-nitrosocyclohexyl phosphate] | detectable levels of HNO |
| CC(=O)OCC(=CC(=O)OC1(N=O)CCOCC1)COC(C)=O [Compound 48, 4-Nitrosotetrahydro-2H-pyran-4-yl 4-(acetyloxy)-3-[(acetyloxy)methyl]but-2-enoate] | detectable levels of HNO |
| CC(=O)OCC(COC(C)=O)CC(=O)OC1(N=O)CCOCC1 [Compound 36, 4-Nitrosotetrahydro-2H-pyran-4-yl 4-acetoxy-3-(acetoxymethyl)butanoate] | detectable levels of HNO |
| CC(=O)OC1(N=O)CC2CCC(C1)N2C (stereo not shown) [Compound 39, 8-Methyl-3-nitroso-8-azabicyclo[3.2.1]oct-3-yl acetate] | detectable levels of HNO |
| CC(=O)N[C@@H](Cc1ccccc1)C(=O)OC1(N=O)CCOCC1 [Compound 23, (S)-4-Nitrosotetrahydro-2H-pyran-4-yl 2-acetamido-3-phenylpropanoate] | detectable levels of HNO |
| CCOP(=O)(OCC)OC1(N=O)CCCCC1 [Compound 25, Diethyl 1-nitrosocyclohexyl phosphate] | detectable levels of HNO |
| O=NC1(OC(=O)CNC(=O)c2ccccc2)CCOCC1 [Compound 31, 4-Nitrosotetrahydro-2H-pyran-4-yl 2-benzamidoacetate] | detectable levels of HNO |
| O=NC1(OC(=O)C(F)(F)F)CCOCC1 [Compound 15, 4-Nitrosotetrahydro-2H-pyran-4-yl 2,2,2-trifluoroacetate] | detectable levels of HNO |
| O=NC1(OC(=O)CC(F)(F)F)CCOCC1 [Compound 16, 4-Nitrosotetrahydro-2H-pyran-4-yl 3,3,3-trifluoropropanoate] | detectable levels of HNO |
| CC(C)C(=O)OC1(N=O)CCCCC1 [Compound 10, 1-Nitrosocyclohexyl isobutyrate] | detectable levels of HNO |
| O=NC1(OC(=O)CCC(F)(F)F)CCOCC1 [Compound 17, 4-Nitrosotetrahydro-2H-pyran-4-yl 4,4,4-trifluorobutanoate] | detectable levels of HNO |
| O=NC1(OC(=O)C(F)(F)Cl)CCOCC1 [Compound 22, 4-Nitrosotetrahydro-2H-pyran-4-yl 2-chloro-2,2-difluoroacetate] | detectable levels of HNO |
| CC(=O)OC1(N=O)CCSC1 (stereo not shown) [Compound 5, 3-Nitrosotetrahydrothiophen-3-yl acetate] | detectable levels of HNO |
| O=NC1(OC(=O)C(Cl)(Cl)Cl)CCOCC1 [Compound 20, 4-Nitrosotetrahydro-2H-pyran-4-yl 2,2,2-trichloroacetate] | detectable levels of HNO |
| CC(=O)OCC(COC(C)=O)CC(=O)OC1(N=O)CCN(C)CC1 [Compound 49, 1-Methyl-4-nitrosopiperidin-4-yl 4-(acetyloxy)-3-[(acetyloxy)methyl]butanoate] | detectable levels of HNO |
| CC(=O)OCCCC(=O)OC1(N=O)CCOCC1 [Compound 44, 4-Nitrosotetrahydro-2H-pyran-4-yl 4-acetoxybutanoate] | detectable levels of HNO |
| O=NC1(OC(=O)CCC2CCC(=O)O2)CCOCC1 (stereo not shown) [Compound 33, 4-Nitrosotetrahydro-2H-pyran-4-yl 3-(5-oxotetrahydrofuran-2-yl)propanoate] | detectable levels of HNO |
| CC(=O)OC1(N=O)CC(C)(C)N(C)C(C)(C)C1 [Compound 7, 1,2,2,6,6-Pentamethyl-4-nitrosopiperidin-4-yl acetate] | detectable levels of HNO |
